From paper PMC7414107

Chains of the proteins cited; added tags and fusions are not shown.
UniProt Q80VP1: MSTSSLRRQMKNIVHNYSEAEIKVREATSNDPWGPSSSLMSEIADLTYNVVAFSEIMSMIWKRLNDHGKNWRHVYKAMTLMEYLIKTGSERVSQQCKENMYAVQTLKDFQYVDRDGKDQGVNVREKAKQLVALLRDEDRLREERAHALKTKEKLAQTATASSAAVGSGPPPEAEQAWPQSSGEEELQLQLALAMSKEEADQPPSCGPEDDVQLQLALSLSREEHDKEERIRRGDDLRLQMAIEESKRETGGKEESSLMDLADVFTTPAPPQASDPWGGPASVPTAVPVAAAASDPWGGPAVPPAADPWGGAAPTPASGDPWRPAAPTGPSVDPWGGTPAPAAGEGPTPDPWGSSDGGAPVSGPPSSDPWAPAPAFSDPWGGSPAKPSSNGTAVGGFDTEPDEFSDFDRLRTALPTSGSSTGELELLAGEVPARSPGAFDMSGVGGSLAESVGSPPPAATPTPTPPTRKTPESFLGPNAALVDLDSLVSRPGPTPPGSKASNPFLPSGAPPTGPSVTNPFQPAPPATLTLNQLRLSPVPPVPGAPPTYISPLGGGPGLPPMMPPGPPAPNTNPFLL

Target: epsin 1 (mouse (endogenous in MAECs)) (UniProt Q80VP1)
Experiment: affinity purification with mass spectrometry; immunoprecipitation with an epsin-1 antibody on rec-protein-G-Sepharose 4B beads from MAECs treated with 100 µg/mL oxLDL for 30 min; Coomassie-stained gel bands digested with trypsin and identified by LC-MS/MS

B1: epsin 2 (protein, UniProt Q8CHU3 1-595)
chain: MTTSSIRRQMKNIVNNYSEAEIKVREATSNDPWGPSSSLMTEIADLTYNVVAFSEIMSMVWKRLNDHGKNWRHVYKALTLLDYLIKTGSERVAQQCRENIFAIQTLKDFQYIDRDGKDQGINVREKSKQLVALLKDEERLKVERVQALKTKERMAQVATGVGSNQITFGRGSSQPNLSTSYSEQEYGKAGGSPASYHGSTSPRVSSELEQARPQTSGEEELQLQLALAMSREVAEQSSESVQTARGSKEERLRRGDDLRLQMALEESRRDTVKVPKKKEAKACCKPGSHSQQTTLLDLMDALPSSGPVTQKTEPWSAGASANQTNPWGGTVAPSNITDPWPSFGTKPAASVDPWGVPTTASTQSVPKNSDPWAASQQPASNAGKTTDAWGAAKPSSASGSFELFSNFNGTVKDDFSEFDNLRTSKKPAESGASVPPQDSRTTSPDLFESQSLTSASSKPSSARKTPESFLGPNAALVNLDSLVTKPAPPAQSLNPFLAPGAAAPAPVNPFQVNQPQPLTLNQLRGSPVLGSSASFGSGPGVETVAPMTSVAPHSSVGASGSSLTPLGPTAMNMVGSVGIPPSAAQSTGTTNPFLL
binding: binds

These are yes or no findings as the source states them, for the method shown. In cells and extracts the contact can be indirect. A yes stands for co-enrichment or nearness to the bait. Other partners may have been found.
